According to PubChem BioAssay AID1159569 (Broad Institute, 2015):
This list was built around the results that the source calls inconclusive (neither active nor inactive); the mix of calls is not that of the screen. Calls of active or inactive are those of the source. The rule behind the calls is not given here.

Test: HepG2 cell cytotoxicity, dose response, cytotoxicity control, plate reader, dry powder samples (AID 1159569)
Settings: HepG2 cytotoxicity counterscreen; at 50 µM (top of the series) unless noted

OC[C@H]1CC[C@@H]2O[C@H](CCc3ccc(C#CCc4ccccc4)cc3)[C@H](n3cc(-c4ccccc4)nn3)C[C@@H]2O1
activity change, negative = cytotoxicity: inactive: -31.8%

C[C@@H]1CN([C@H](C)CO)C(=O)c2cccc(NC(=O)Nc3cccc4ccccc34)c2O[C@@H]1CN(C)C(=O)Nc1ccc(C(F)(F)F)cc1
activity change, negative = cytotoxicity: inactive: -47%

CO[C@@H]1CN(C)C(=O)c2ccc(NC(=O)Nc3ccccc3F)cc2OC[C@@H](C)N(Cc2ccccc2F)C[C@H]1C
activity change, negative = cytotoxicity: inactive: -9.48%

CCCNC(=O)N1[C@H](C#N)[C@H](c2ccc(-c3ccccc3F)cc2)[C@H]1CO
activity change, negative = cytotoxicity: inconclusive: -42%

O=C(Cc1ccccc1)N1CC(=O)N2[C@H](CO)[C@H](c3ccc(C#Cc4ccccc4)cc3)[C@H]2C1
activity change, negative = cytotoxicity: inconclusive: -98.4%

COc1ccccc1S(=O)(=O)N(C)C[C@H]1Oc2cc(/C=C/c3ccccc3)ccc2S(=O)(=O)N([C@H](C)CO)C[C@@H]1C
activity change, negative = cytotoxicity: inactive: -6.95%

COc1ccc2c3c([nH]c2c1)[C@H](CO)N(Cc1cccc(F)c1)CC31CCN(Cc2ccccn2)CC1
activity change, negative = cytotoxicity: inconclusive: -71.2%

OC[C@@H]1Nc2ccc(C#Cc3ccccc3)cc2[C@@H]2[C@H]1CCN2Cc1nccs1
activity change, negative = cytotoxicity: inconclusive: -99.3%

O=C(c1ccc(F)cc1)N1CC(=O)N2[C@H](C1)[C@@H](c1ccc(-c3cccnc3)cc1)[C@@H]2CO
activity change, negative = cytotoxicity: inactive: -6.43%

C[C@H](CO)N1C[C@H](C)[C@@H](CN(C)S(=O)(=O)c2ccc(C(F)(F)F)cc2)OCc2ccccc2-c2c(n(C)c3ccccc23)C1=O
activity change, negative = cytotoxicity: inconclusive: -12.3% [at 5.6 µM]
